In patent US8487137B2, “Photochemical crosslinkers for polymer coatings and substrate tie-layer” (Innovative Surface Technologies, LLC, priority 2005, dated 2013):

How the values were obtained:
[1] = Congo Red stain and rub durability of PVP/crosslinker coatings on PVC coverslips; set-up: key: +++ indicates a full coating, no obvious removal of coating from the piece and a bright red color; ++ is slight removal but majority is still intact, color is still red but may be slightly less red or blotchy; + indicates significant removal of coating, but still coating present. The color is typically pink; − indicates no coating remains, no color at all from the stain; settings: 50 mg/mL PVP Kollidon 90 in isopropanol, PVC coverslip; for Congo Red stain, Illuminated Rubbed / Congo Red stain, Illuminated Unrubbed: UV 5 minutes
[2] = Lubricity test: friction force through silicone pads in water (Harland FTS 5000)
[3] = 0.5 mg/ml crosslinker, 50 mg/ml PVP 70% K90/30% K30, Mentor Self-Cath catheter, nine cycles
[4] = 0.5 mg/ml crosslinker, 50 mg/ml PVP 75% K90/25% K30, Mentor Self-Cath catheter, 300 g clamp force
[5] = 0.5 mg/ml crosslinker, 50 mg/ml PVP 80% K90/20% K30, PVC tubing, fifteen cycles
[6] = 1.0 mg/ml crosslinker, 50 mg/ml PVP 75% K90/25% K30, HDPE rod, 500 g force, eleven cycles

Structure (SMILES) | Congo Red stain, Unilluminated Rubbed ([1]; 1 mg/mL crosslinker) | Congo Red stain, Unilluminated Unrubbed ([1]; 1 mg/mL crosslinker) | Congo Red stain, Illuminated Rubbed ([1]; 1 mg/mL crosslinker) | Congo Red stain, Illuminated Unrubbed ([1]; 1 mg/mL crosslinker) | Congo Red stain, Unilluminated Rubbed ([1]; 2 mg/mL crosslinker) | Congo Red stain, Unilluminated Unrubbed ([1]; 2 mg/mL crosslinker) | Congo Red stain, Illuminated Rubbed ([1]; 2 mg/mL crosslinker) | Congo Red stain, Illuminated Unrubbed ([1]; 2 mg/mL crosslinker) | Congo Red stain, Unilluminated Rubbed ([1]; .5 mg/mL crosslinker) | Congo Red stain, Unilluminated Unrubbed ([1]; .5 mg/mL crosslinker) | Congo Red stain, Illuminated Rubbed ([1]; .5 mg/mL crosslinker) | Congo Red stain, Illuminated Unrubbed ([1]; .5 mg/mL crosslinker) | average frictional force [2, 3] | average peak force [2, 3] | average friction force [2, 4] | peak friction force [2, 4] | average frictional force [2, 5] | average peak force [2, 5] | average friction force [2, 6] | peak friction force [2, 6]
OCCOCCO [Example 14] | [−] | [−] | [++] | [++] | [−] | [−] | [+++] | [+++] | [−] | [−] | [+] | [+] | – | – | – | – | – | – | – | –
O=C(c1ccccc1)c1ccc(OCC(O)Cn2c(=O)n(CC(O)COc3ccc(C(=O)c4ccccc4)cc3)c(=O)n(CC(O)COc3ccc(C(=O)c4ccccc4)cc3)c2=O)cc1 (centres unmarked) [Example 1] | – | – | – | – | – | – | – | – | – | – | – | – | 16.2 g | 19.3 g | 11.4 g | 26.2 g | 5.7 g | 8.4 g | 3.9 g | 6.7 g
